The list shows a part of the results.
Compound: Cc1cc(ccc1-c1ccccc1)C(=O)N1CCCN(CC1)C(=O)CCl [compound 10]
Assay: probe-labelled cysteine peptide fold change vs DMSO (competition) (log2 fold change); higher = less target engagement (more negative = stronger competition)
Details: THP-1, incubation time: 4 h
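Note: competitive profiling in live THP-1 cells: cysteine peptides tagged with an iodoacetamide desthiobiotin (IA-DTB) probe, intensity after compound treatment relative to DMSO-treated cells.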

Amino acid sequences for entries named in this document (tags omitted). A change or cut given only in a name is not applied to a line headed by its entry.
UniProt Q96GC6: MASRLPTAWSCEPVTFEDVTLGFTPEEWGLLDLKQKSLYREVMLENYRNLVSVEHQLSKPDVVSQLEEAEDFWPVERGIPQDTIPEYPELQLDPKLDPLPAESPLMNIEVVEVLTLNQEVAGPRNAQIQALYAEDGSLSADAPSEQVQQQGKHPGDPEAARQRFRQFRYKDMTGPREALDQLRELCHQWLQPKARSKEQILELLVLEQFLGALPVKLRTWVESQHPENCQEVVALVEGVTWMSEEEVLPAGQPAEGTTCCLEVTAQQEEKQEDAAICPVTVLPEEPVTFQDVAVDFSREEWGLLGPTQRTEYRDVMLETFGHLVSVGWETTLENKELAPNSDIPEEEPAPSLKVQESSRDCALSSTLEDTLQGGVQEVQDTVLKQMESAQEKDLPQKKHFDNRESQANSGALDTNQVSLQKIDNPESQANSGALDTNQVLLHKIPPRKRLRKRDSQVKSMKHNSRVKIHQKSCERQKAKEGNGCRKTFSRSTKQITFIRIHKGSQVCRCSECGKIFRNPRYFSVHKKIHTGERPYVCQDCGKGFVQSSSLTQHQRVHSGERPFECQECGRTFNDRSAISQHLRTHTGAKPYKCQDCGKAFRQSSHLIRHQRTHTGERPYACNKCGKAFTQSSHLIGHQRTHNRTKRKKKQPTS
UniProt Q5VZL5: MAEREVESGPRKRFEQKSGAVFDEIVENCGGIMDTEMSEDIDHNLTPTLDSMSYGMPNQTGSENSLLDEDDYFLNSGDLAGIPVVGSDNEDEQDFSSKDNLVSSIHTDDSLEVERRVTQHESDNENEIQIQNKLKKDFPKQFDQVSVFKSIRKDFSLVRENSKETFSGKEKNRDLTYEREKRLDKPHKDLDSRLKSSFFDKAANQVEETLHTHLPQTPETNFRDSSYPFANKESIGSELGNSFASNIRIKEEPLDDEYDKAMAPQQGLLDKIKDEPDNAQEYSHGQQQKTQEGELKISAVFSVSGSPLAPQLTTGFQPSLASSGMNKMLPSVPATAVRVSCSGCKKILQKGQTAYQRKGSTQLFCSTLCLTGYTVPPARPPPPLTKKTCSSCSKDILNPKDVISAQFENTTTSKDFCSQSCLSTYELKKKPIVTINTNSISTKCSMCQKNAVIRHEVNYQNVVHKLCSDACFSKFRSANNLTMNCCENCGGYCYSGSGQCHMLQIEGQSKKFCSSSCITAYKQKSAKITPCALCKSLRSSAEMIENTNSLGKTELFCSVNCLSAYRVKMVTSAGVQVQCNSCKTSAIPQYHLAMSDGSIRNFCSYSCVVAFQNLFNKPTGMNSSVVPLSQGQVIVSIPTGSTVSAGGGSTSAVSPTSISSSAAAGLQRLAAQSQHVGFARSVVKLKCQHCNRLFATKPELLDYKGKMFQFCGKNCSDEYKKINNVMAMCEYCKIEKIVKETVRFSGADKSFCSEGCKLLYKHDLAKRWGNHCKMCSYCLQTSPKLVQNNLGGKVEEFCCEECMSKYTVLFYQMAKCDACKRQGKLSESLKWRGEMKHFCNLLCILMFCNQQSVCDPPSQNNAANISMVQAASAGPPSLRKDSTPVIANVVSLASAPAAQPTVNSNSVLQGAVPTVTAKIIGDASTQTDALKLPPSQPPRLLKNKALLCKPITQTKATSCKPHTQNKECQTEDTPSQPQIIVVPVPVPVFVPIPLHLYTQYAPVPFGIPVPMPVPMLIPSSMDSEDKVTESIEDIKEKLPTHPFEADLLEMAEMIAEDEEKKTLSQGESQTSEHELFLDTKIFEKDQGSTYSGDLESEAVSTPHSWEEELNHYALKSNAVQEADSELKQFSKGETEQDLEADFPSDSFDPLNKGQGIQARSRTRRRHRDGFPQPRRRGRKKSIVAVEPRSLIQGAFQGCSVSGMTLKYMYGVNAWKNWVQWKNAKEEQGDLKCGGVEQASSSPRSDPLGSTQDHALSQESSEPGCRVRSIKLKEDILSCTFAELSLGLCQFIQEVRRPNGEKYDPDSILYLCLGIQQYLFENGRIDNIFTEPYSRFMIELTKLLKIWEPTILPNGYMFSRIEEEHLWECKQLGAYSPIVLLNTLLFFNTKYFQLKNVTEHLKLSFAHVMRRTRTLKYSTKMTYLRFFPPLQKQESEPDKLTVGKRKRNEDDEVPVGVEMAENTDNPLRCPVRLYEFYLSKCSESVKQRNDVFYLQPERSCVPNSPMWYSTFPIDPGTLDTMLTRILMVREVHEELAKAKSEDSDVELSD
UniProt Q9H582: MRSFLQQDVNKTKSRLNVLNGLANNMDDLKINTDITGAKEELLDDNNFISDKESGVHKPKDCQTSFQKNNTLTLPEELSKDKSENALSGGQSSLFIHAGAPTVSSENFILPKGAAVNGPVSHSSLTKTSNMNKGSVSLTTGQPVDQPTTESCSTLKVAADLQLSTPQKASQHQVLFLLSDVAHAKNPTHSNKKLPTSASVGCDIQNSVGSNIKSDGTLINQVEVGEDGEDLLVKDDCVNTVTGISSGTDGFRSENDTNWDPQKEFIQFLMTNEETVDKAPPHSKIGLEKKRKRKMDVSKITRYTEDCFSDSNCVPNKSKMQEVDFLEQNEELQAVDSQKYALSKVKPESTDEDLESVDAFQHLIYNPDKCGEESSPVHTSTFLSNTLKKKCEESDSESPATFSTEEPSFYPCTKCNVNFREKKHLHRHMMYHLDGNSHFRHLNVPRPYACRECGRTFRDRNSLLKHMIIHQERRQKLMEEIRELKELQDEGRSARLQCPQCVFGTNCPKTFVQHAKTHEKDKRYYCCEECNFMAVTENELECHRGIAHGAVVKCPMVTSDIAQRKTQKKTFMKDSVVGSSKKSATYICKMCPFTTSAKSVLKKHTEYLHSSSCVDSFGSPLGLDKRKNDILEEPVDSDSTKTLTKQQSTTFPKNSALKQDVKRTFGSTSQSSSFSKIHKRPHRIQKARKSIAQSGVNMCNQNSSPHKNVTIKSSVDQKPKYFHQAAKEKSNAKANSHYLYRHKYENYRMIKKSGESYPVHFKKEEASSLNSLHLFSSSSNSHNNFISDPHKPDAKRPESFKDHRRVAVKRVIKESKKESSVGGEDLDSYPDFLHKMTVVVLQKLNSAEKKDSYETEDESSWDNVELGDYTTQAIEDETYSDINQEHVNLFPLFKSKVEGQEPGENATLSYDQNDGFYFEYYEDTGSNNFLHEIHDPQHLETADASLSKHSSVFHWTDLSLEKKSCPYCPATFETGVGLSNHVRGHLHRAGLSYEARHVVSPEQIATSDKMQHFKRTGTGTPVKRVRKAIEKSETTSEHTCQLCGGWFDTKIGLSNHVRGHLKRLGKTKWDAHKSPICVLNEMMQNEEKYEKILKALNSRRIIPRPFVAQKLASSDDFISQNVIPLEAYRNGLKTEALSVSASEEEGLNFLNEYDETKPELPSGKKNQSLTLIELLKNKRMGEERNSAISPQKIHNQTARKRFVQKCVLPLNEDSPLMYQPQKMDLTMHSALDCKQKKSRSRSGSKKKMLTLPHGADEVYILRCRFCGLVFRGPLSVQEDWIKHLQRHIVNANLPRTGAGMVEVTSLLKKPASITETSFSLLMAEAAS
UniProt A6NFI3: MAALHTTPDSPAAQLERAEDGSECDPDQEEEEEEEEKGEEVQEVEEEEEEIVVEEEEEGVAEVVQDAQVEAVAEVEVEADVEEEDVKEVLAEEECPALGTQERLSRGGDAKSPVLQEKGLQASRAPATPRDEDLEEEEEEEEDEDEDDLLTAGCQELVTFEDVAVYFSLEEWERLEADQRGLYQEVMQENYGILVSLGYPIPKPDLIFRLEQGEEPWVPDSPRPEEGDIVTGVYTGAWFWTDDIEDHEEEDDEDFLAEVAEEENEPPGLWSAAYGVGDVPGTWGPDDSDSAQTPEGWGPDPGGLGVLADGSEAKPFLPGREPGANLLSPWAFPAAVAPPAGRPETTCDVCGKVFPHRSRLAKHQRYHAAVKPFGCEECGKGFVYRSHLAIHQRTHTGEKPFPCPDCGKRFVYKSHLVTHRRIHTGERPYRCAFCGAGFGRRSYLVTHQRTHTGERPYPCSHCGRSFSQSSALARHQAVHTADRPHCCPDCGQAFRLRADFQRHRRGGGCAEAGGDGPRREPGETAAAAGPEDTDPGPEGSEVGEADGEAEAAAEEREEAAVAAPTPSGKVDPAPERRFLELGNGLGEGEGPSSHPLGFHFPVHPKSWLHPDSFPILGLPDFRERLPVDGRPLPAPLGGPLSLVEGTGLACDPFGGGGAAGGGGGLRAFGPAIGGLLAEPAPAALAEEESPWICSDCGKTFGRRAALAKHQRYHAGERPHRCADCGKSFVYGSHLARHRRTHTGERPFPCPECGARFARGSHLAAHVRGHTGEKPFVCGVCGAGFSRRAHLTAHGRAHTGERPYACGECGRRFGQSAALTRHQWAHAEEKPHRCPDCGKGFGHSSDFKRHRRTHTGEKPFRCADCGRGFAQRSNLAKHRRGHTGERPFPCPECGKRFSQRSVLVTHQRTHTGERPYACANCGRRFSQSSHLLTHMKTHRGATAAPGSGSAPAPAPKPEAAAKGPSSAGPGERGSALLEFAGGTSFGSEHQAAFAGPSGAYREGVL
UniProt Q9H2Y7: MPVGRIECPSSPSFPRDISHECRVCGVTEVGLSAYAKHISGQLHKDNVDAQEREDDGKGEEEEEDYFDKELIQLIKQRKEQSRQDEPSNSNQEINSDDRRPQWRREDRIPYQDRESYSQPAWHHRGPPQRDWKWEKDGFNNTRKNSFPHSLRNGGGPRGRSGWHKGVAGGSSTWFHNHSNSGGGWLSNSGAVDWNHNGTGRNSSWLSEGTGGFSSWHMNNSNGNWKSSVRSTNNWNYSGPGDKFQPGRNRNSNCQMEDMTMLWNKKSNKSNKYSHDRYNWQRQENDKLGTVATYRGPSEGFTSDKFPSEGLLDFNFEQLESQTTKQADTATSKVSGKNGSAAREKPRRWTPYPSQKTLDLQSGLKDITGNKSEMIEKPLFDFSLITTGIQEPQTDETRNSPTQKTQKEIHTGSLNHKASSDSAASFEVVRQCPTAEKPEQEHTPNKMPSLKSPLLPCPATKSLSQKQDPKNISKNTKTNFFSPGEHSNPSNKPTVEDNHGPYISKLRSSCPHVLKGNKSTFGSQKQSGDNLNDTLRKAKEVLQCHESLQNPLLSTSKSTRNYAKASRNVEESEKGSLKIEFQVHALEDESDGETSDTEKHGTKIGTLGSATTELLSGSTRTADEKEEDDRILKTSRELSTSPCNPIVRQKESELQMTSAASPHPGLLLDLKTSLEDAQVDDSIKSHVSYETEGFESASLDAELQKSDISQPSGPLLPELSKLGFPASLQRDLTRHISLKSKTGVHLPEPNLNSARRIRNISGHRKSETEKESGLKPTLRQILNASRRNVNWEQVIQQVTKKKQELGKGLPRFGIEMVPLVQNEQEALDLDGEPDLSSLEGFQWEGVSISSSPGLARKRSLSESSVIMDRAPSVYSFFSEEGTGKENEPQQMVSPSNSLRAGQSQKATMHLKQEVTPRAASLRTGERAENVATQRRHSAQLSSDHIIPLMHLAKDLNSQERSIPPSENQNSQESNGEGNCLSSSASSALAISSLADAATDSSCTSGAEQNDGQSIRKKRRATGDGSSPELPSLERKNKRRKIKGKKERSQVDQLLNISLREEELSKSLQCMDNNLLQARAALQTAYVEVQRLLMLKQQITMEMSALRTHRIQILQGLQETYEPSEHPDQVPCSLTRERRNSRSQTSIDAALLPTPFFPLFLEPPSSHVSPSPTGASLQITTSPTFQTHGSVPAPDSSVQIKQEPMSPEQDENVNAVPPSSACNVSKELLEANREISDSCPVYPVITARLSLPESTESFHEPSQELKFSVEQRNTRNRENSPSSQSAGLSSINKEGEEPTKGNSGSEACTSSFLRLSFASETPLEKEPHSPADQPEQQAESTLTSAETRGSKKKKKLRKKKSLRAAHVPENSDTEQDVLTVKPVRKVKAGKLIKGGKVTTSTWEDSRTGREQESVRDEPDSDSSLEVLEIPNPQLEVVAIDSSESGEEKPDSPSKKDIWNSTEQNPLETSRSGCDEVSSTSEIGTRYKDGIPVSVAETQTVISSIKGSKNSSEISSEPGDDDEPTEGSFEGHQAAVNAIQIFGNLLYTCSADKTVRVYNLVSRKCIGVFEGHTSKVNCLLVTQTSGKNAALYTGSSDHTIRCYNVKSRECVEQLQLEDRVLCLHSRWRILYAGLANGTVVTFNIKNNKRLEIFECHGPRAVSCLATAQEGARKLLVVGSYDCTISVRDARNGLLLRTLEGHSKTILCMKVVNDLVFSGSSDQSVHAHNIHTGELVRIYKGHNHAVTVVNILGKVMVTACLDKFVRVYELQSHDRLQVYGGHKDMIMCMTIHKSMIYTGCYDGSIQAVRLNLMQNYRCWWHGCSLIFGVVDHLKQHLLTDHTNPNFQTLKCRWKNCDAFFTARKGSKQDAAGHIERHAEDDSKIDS

Target | probe-labelled cysteine peptide fold change (10 µM) | probe-labelled cysteine peptide fold change (50 µM)
ZFP91_Q96JP5_313+318_CEMEGCGTVLAHPR (UniProt Q96JP5) | -0.151 | -0.409
ZFYVE1_Q9HBF4_217_TSPTQESCTVGVWAAYDPVHK (UniProt Q9HBF4) | 0.317 | 0.0727
ZNF274_Q96GC6_361_DCALSSTLEDTLQGGVQEVQDTVLK (UniProt Q96GC6) | 0.16 | 0.202
ZNF408_Q9H9D4_383_HAFVHTGHKPFLCTECGK (UniProt Q9H9D4) | 0.0181 | 0.183
ZNF318_Q5VUA4_1740_SELDLGEPGPPGVEPPPQLLDIQCK (UniProt Q5VUA4) | -0.112 | -0.116
ZNF114_Q8NC26_51_NLAFIDWATPCK (UniProt Q8NC26) | -0.0397 | 0.0891
ZMYM4_Q5VZL5_732_INNVMAMCEYCK (UniProt Q5VZL5) | 0.00185 | -0.422
ZNF691_Q5VV52_232_THLEPAPYICCECGK (UniProt Q5VV52) | 0.127 | -0.851
ZNF644_Q9H582_588_SATYICK (UniProt Q9H582) | 0.232 | -0.113
ZNF316_A6NFI3_95_EVLAEEECPALGTQER (UniProt A6NFI3) | 0.175 | 0.146
ZNF106_Q9H2Y7_22_DISHECR (UniProt Q9H2Y7) | 0.118 | 0.389
ZMYM3_Q14202_436_LCSDSCFSK (UniProt Q14202) | -0.166 | -0.551
ZNF521_Q96K83_990_SLDTGNCR (UniProt Q96K83) | 0.112 | 0.0963
ZNF106_Q9H2Y7_432_QCPTAEKPEQEHTPNK (UniProt Q9H2Y7) | -0.456 | -0.279
